Assay results taken from PMC10322693.
No constants are given. Whether binding was seen depends on the method and setting. Binding seen in cells or lysates may run through a third protein. Some entries that bind do so weakly or less than the wild type. Tags and fused reporters may be left off the sequences shown.

Sequences of proteins named here, by UniProt entry; tags and fusion partners are left off.
UniProt Q9DBL9: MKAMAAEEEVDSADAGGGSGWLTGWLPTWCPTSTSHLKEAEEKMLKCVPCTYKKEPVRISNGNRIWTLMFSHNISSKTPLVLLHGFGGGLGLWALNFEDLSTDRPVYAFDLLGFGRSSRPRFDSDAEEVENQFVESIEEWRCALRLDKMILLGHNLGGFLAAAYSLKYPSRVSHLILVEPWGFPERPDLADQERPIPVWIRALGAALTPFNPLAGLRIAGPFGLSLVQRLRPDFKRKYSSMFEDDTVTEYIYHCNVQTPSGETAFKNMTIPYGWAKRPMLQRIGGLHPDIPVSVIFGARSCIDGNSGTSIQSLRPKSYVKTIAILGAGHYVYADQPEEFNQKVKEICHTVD

T1: purified His-tagged CGI58 (human comparative gene identification-58) (human) (UniProt Q8WTS1)
T1 sequence: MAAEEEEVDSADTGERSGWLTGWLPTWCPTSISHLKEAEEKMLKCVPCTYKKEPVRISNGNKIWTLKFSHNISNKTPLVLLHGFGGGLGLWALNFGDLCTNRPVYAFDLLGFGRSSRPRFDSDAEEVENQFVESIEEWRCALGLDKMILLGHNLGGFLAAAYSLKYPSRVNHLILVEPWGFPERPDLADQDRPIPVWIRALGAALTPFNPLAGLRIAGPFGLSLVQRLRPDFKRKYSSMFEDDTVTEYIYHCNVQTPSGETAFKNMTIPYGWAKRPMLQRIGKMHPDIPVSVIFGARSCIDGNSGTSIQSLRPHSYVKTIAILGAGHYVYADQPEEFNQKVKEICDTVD

B1: endogenous PNPLA9 of mouse placenta (protein, UniProt P97819 1-807)
chain: MQFFGRLVNTLSSVTNLFSNPFRVKEVSLTDYVSSERVREEGQLILLQNVSNRTWDCVLVSPRNPQSGFRLFQLESEADALVNFQQFSSQLPPFYESSVQVLHVEVLQHLTDLIRNHPSWTVTHLAVELGIRECFHHSRIISCANSTENEEGCTPLHLACRKGDSEILVELVQYCHAQMDVTDNKGETAFHYAVQGDNPQVLQLLGKNASAGLNQVNNQGLTPLHLACKMGKQEMVRVLLLCNARCNIMGPGGFPIHTAMKFSQKGCAEMIISMDSNQIHSKDPRYGASPLHWAKNAEMARMLLKRGCDVDSTSSSGNTALHVAVMRNRFDCVMVLLTYGANAGARGEHGNTPLHLAMSKDNMEMVKALIVFGAEVDTPNDFGETPALIASKISKLITRKALLTLLKTVGADHHFPIIQGVSTEQGSAAATHPLFSLDRTQPPAISLNNLELQDLMPISRARKPAFILSSMRDEKRSHDHLLCLDGGGVKGLVIIQLLIAIEKASGVATKDLFDWVAGTSTGGILALAILHSKSMAYMRGVYFRMKDEVFRGSRPYESGPLEEFLKREFGEHTKMTDVKKPKVMLTGTLSDRQPAELHLFRNYDAPEAVREPRCNQNINLKPPTQPADQLVWRAARSSGAAPTYFRPNGRFLDGGLLANNPTLDAMTEIHEYNQDMIRKGQGNKVKKLSIVVSLGTGKSPQVPVTCVDVFRPSNPWELAKTVFGAKELGKMVVDCCTDPDGRAVDRARAWCEMVGIQYFRLNPQLGSDIMLDEVSDAVLVNALWETEVYIYEHREEFQKLVQLLLSP
B2: FLAG-PNPLA9 (mouse), overexpressed in HEK293T cells (protein, UniProt P97819 1-807)
chain: B1 chain

How the values were obtained:
[1] = target: T1, purified His-tagged CGI58 (human comparative gene identification-58) (human); assay: co-IP; 12 μg purified His-CGI58 mixed with precleared mouse placenta lysate and 10 μg anti-His antibody or mouse IgG (control), overnight at 4°C, Protein G Dynabeads, blot for His-CGI58 and PNPLA9; only the target purified
[2] = target: His-CGI58 (mouse), overexpressed in HEK293T cells (mouse) (UniProt Q9DBL9); assay: co-IP; HEK293T cells coexpressing FLAG-PNPLA9 and His-CGI58; lysate in 100 mM NaCl, 50 mM Tris-HCl pH 7.2, 1% Triton X-100, 2 mM β-mercaptoethanol; IP with anti-His overnight at 4°C, WB with anti-FLAG

Row | Binder | binding [1] | binding [2]
1 | B1 | binds | –
2 | B2 | – | binds
